The experiment deals with BcCbp20::GFP (Botrytis cinerea). The experiment can be described thus: affinity purification with mass spectrometry; total proteins of BcCbp20::GFP:B05.10 mycelia on GFP-Trap magnetic beads, 4 °C overnight, washed with 20 mM Tris-HCl, 500 mM NaCl, pH 7.5; LC-MS/MS; WT strain as control.

Chains of the proteins cited; added tags and fusions are not shown. Lines headed by an entry give the natural chain unless they say otherwise; changes in a name come on top.
UniProt A0A384K7V0: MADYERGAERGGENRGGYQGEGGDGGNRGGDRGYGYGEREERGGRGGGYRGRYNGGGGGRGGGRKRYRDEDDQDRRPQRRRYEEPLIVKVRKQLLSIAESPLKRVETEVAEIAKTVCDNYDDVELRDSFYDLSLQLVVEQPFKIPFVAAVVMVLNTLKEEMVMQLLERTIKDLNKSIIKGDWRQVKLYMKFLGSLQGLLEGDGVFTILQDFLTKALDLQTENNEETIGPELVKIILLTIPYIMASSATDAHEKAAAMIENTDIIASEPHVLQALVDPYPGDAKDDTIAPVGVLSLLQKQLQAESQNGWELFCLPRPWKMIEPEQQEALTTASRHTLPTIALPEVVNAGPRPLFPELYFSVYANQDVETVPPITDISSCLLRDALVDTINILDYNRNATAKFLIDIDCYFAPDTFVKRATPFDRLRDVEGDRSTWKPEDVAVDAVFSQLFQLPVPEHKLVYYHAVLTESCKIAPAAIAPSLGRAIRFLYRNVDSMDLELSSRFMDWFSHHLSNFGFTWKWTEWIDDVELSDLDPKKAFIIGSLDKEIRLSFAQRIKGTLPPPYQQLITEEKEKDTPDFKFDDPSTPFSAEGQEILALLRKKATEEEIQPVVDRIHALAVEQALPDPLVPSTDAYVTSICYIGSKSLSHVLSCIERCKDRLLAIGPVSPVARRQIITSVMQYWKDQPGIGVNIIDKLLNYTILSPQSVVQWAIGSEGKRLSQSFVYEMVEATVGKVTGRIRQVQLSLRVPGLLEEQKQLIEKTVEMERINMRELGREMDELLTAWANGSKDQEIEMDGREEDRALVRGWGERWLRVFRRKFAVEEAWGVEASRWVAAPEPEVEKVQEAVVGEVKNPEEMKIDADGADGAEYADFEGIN

Results are given in words; binding and its absence hold for the method and conditions named. In cells and extracts the contact can be indirect. These calls come from enrichment with a bait or labelling near it, and not all partners need be listed.

Our source for the binding values is PMC12194085.

BcCbp80 (from UniProt A0A384K7V0): the binding result is listed as “binds”.
